In PubChem BioAssay AID248 (DTP/NCI, 2004) one finds T/C and survivor count data, which are given here for 6 molecules.

The list is a part of this screen's results and no random one: its compounds were picked by chemical class. Other doses and runs of a compound may be missing. T/C is the treated group as % of the vehicle group. Some doses have a count of surviving animals in place of a T/C: the source holds a T/C of zero for them, seemingly a mark for toxic or unscored doses. Counts of survivors are from the toxicity check (mostly the fifth day) where no day follows; animals may have died later. Schedules are NCI's codes, taken here to give the interval after Q, in days (D) or hours (H), and the number of doses after X. Marks such as (2×) say how often a value occurs here. Some doses were run more than once; their values stand side by side, smallest first. Some schedules carry Z or #; the key to these is not given. For survival time, the PubChem record calls one and a half times the control and up active, and a quarter to a half above the control has no call in these data; cut-offs in other NCI protocols can differ. Some T/C values are followed by the survivors on the day toxicity was checked, most often the fifth; without a count or a note in brackets, all were alive then.

The assay concerns L1210 leukemia ip in BDF1 mice, survival T/C. Nature of the assay: NCI In Vivo Anticancer Drug Screen. Data for tumor model L1210 Leukemia (intraperitoneal) in B6D2F1 (BDF1) mice. Particulars: higher T/C = longer survival.
Setting [1] is: T/C endpoint: mean survival time, dose: 125.0 mg/kg/injection, schedule: Q01DX010 (ip), vehicle: saline.

Consider `NC(Cc1ccc(N(CCF)CCCl)cc1)C(=O)O` (centres undefined), for which the T/C by setting is: (T/C endpoint: mean survival time, dose: 0.5 mg/kg/injection, schedule: Q01DX009 (ip), vehicle: carboxymethylcellulose (CMC)) 107 % of control; (T/C endpoint: mean survival time, dose: 1.0 mg/kg/injection, schedule: Q01DX009 (ip), vehicle: carboxymethylcellulose (CMC)) 106 % of control; (T/C endpoint: mean survival time, dose: 1.9 mg/kg/injection, schedule: Q01DX009 (ip), vehicle: carboxymethylcellulose (CMC)) 111 % of control; (T/C endpoint: mean survival time, dose: 2.0 mg/kg/injection, schedule: Q01DX009 (ip), vehicle: carboxymethylcellulose (CMC)) 112 % of control; (T/C endpoint: mean survival time, dose: 3.8 mg/kg/injection, schedule: Q01DX009 (ip), vehicle: carboxymethylcellulose (CMC)) 118 and 126 % of control; (T/C endpoint: mean survival time, dose: 7.5 mg/kg/injection, schedule: Q01DX009 (ip), vehicle: carboxymethylcellulose (CMC)) 135 and 142 % of control. The T/C reads like this: (T/C endpoint: mean survival time, dose: 12.5 mg/kg/injection, schedule: Q01DX001 (ip), vehicle: carboxymethylcellulose (CMC)) 120 % of control; (T/C endpoint: mean survival time, dose: 15.0 mg/kg/injection, schedule: Q01DX009 (ip), vehicle: carboxymethylcellulose (CMC)) 127 and 170 % of control; (T/C endpoint: mean survival time, dose: 25.0 mg/kg/injection, schedule: Q01DX001 (ip), vehicle: carboxymethylcellulose (CMC)) 123 and 126 % of control; (T/C endpoint: mean survival time, dose: 30.0 mg/kg/injection, schedule: Q01DX009 (ip), vehicle: carboxymethylcellulose (CMC)) 147 and 173 % of control; (T/C endpoint: mean survival time, dose: 44.4 mg/kg/injection, schedule: Q01DX001 (ip), vehicle: carboxymethylcellulose (CMC)) 133 % of control; (T/C endpoint: mean survival time, dose: 50.0 mg/kg/injection, schedule: Q01DX001 (ip), vehicle: carboxymethylcellulose (CMC)) 129 % of control (2×). In addition, the T/C was 118 and 127 % of control (T/C endpoint: mean survival time, dose: 60.0 mg/kg/injection, schedule: Q01DX009 (ip), vehicle: carboxymethylcellulose (CMC)); 139 % of control (T/C endpoint: mean survival time, dose: 66.6 mg/kg/injection, schedule: Q01DX001 (ip), vehicle: carboxymethylcellulose (CMC)); 139 and 188 % of control (T/C endpoint: mean survival time, dose: 100.0 mg/kg/injection, schedule: Q01DX001 (ip), vehicle: carboxymethylcellulose (CMC), evaluated on day 30); 160 % of control (T/C endpoint: mean survival time, dose: 100.0 mg/kg/injection, schedule: Q01DX001 (ip), vehicle: carboxymethylcellulose (CMC), run until all animals had died). Besides, the survivor count runs as follows: (T/C endpoint: mean survival time, dose: 100.0 mg/kg/injection, schedule: Q01DX001 (ip), vehicle: carboxymethylcellulose (CMC)) 3 of 6; (T/C endpoint: mean survival time, dose: 120.0 mg/kg/injection, schedule: Q01DX009 (ip), vehicle: carboxymethylcellulose (CMC)) 1 of 6 and 3 of 6; (T/C endpoint: mean survival time, dose: 150.0 mg/kg/injection, schedule: Q01DX001 (ip), vehicle: carboxymethylcellulose (CMC)) 3 of 6; (T/C endpoint: mean survival time, dose: 200.0 mg/kg/injection, schedule: Q01DX001 (ip), vehicle: carboxymethylcellulose (CMC)) 0 of 6, 1 of 6, 2 of 4; (T/C endpoint: mean survival time, dose: 400.0 mg/kg/injection, schedule: Q01DX001 (ip), vehicle: carboxymethylcellulose (CMC)) 0 of 6 (2×).

In the case of `Cc1cc(N(CCCl)CCCl)ccc1C1OCCO1.[C-]#[O+].[C-]#[O+].[C-]#[O+].[Cr]`, the T/C is, setting by setting: (T/C endpoint: mean survival time, dose: 100.0 mg/kg/injection, schedule: Q01DX009 (ip), vehicle: Klucel (hydroxypropylcellulose) (HPC)) 94 % of control; (T/C endpoint: mean survival time, dose: 200.0 mg/kg/injection, schedule: Q01DX009 (ip), vehicle: Klucel (hydroxypropylcellulose) (HPC)) 100 % of control; (T/C endpoint: mean survival time, dose: 400.0 mg/kg/injection, schedule: Q01DX009 (ip), vehicle: Klucel (hydroxypropylcellulose) (HPC)) 92 % of control.

`C=CC1CN2CCC1CC2C(O)c1ccnc2ccc(OC)cc12.O=C(O)c1c([N+](=O)[O-])cc([N+](=O)[O-])c(-c2c([N+](=O)[O-])cc([N+](=O)[O-])c(C(=O)O)c2[N+](=O)[O-])c1[N+](=O)[O-]`: the T/C (T/C endpoint: mean survival time, dose: 100.0 mg/kg/injection, schedule: Q01DX001 (ip), vehicle: Klucel (hydroxypropylcellulose) (HPC)) is 103 % of control; the T/C (T/C endpoint: mean survival time, dose: 200.0 mg/kg/injection, schedule: Q01DX001 (ip), vehicle: Klucel (hydroxypropylcellulose) (HPC)) was 92 % of control; the T/C (T/C endpoint: mean survival time, dose: 400.0 mg/kg/injection, schedule: Q01DX001 (ip), vehicle: Klucel (hydroxypropylcellulose) (HPC)) is 92 % of control.

In the case of `O=C(Nc1ccc([N+](=O)[O-])cc1[N+](=O)[O-])Nc1ccc([N+](=O)[O-])cc1[N+](=O)[O-]`, the T/C is 101 % of control (T/C endpoint: mean survival time, dose: 100.0 mg/kg/injection, schedule: Q01DX009 (ip), vehicle: saline with Tween-80); 87 % of control (T/C endpoint: mean survival time, dose: 100.0 mg/kg/injection, schedule: Q04DX003 (ip), vehicle: Klucel (hydroxypropylcellulose) (HPC)); 101 % of control (T/C endpoint: mean survival time, dose: 200.0 mg/kg/injection, schedule: Q01DX009 (ip), vehicle: saline with Tween-80); 92 % of control (T/C endpoint: mean survival time, dose: 200.0 mg/kg/injection, schedule: Q04DX003 (ip), vehicle: Klucel (hydroxypropylcellulose) (HPC)); 100 % of control (T/C endpoint: mean survival time, dose: 400.0 mg/kg/injection, schedule: Q01DX009 (ip), vehicle: saline with Tween-80); 113 % of control (T/C endpoint: mean survival time, dose: 400.0 mg/kg/injection, schedule: Q04DX003 (ip), vehicle: Klucel (hydroxypropylcellulose) (HPC)).

`CC[C@H](C)[C@@H]1NC(=O)/C(=C(\C)O)C1=O`: the T/C reads like this: (T/C endpoint: mean survival time, dose: 12.5 mg/kg/injection, schedule: Q01DX Z (ip), vehicle: carboxymethylcellulose (CMC)) 107 % of control; (T/C endpoint: mean survival time, dose: 15.6 mg/kg/injection, schedule: Q01DX010 (ip), vehicle: saline) 104 and 106 % of control; (T/C endpoint: mean survival time, dose: 25.0 mg/kg/injection, schedule: Q01DX Z (ip), vehicle: carboxymethylcellulose (CMC)) 120 % of control [5 of 6 alive]; (T/C endpoint: mean survival time, dose: 25.0 mg/kg/injection, schedule: Q01DX Z (ip), vehicle: water) 98 % of control; (T/C endpoint: mean survival time, dose: 31.3 mg/kg/injection, schedule: Q01DX010 (ip), vehicle: saline) 104 and 106 % of control; (T/C endpoint: mean survival time, dose: 50.0 mg/kg/injection, schedule: Q01DX Z (ip), vehicle: carboxymethylcellulose (CMC)) 104 % of control [4 of 6 alive]. The T/C is, setting by setting: (T/C endpoint: mean survival time, dose: 62.5 mg/kg/injection, schedule: Q01DX010 (ip), vehicle: saline) 102 and 104 % of control; under setting [1], 110 % of control [5 of 6 alive]; (T/C endpoint: median survival time, dose: 25.0 mg/kg/injection, schedule: Q04DX003 (ip), vehicle: saline) 103 % of control; (T/C endpoint: median survival time, dose: 50.0 mg/kg/injection, schedule: Q04DX003 (ip), vehicle: saline) 102 % of control; (T/C endpoint: median survival time, dose: 100.0 mg/kg/injection, schedule: Q04DX003 (ip), vehicle: saline) 100 % of control [6 of 8 alive]. The survivor count runs as follows: (T/C endpoint: mean survival time, dose: 50.0 mg/kg/injection, schedule: Q01DX Z (ip), vehicle: water) 3 of 6; (T/C endpoint: mean survival time, dose: 100.0 mg/kg/injection, schedule: Q01DX Z (ip), vehicle: carboxymethylcellulose (CMC)) 0 of 6; (T/C endpoint: mean survival time, dose: 100.0 mg/kg/injection, schedule: Q01DX Z (ip), vehicle: water) 0 of 6; under setting [1], 0 of 6; (T/C endpoint: mean survival time, dose: 200.0 mg/kg/injection, schedule: Q01DX Z (ip), vehicle: water) 0 of 6; (T/C endpoint: median survival time, dose: 200.0 mg/kg/injection, schedule: Q04DX003 (ip), vehicle: saline) 1 of 8. Under “T/C endpoint: median survival time, dose: 400.0 mg/kg/injection, schedule: Q04DX003 (ip), vehicle: saline”, the survivor count is 0 of 8.

Turning to `CCN(CC)P(=O)(OCCCC=O)N(CCCl)CCCl` (centres undefined), the T/C reads like this: (T/C endpoint: mean survival time, dose: 100.0 mg/kg/injection, schedule: Q01DX001 (ip), vehicle: other) 90 % of control; (T/C endpoint: mean survival time, dose: 200.0 mg/kg/injection, schedule: Q01DX001 (ip), vehicle: other) 95 % of control. Moreover, the survivor count (T/C endpoint: mean survival time, dose: 400.0 mg/kg/injection, schedule: Q01DX001 (ip), vehicle: other) is reported as 0 of 6.
